According to US20200140851A1 (Scripps Research, published 2020):
These are yes or no findings as the source states them, for the method shown. In cells and extracts the contact can be indirect. Some entries that bind do so weakly or less than the wild type.

By UniProt entry, the sequences of proteins in these tests, tags left out. Where a name states a change or a piece, a line headed by the entry shows the natural chain unless it says otherwise.
UniProt P08670: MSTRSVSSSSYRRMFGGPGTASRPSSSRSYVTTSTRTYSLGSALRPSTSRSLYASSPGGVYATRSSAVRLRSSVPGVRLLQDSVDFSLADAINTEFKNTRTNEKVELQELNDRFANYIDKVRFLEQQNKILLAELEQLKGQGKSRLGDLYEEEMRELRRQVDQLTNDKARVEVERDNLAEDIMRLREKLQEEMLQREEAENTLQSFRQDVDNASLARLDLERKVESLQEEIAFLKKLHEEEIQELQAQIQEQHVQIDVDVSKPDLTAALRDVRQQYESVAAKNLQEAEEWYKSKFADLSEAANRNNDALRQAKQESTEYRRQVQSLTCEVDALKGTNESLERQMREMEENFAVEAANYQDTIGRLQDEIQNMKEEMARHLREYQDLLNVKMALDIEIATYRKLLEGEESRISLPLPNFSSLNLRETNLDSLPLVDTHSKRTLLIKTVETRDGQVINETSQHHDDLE

Molecular target: human vimentin (human) (UniProt P08670)
Assay: confocal immunofluorescence on human CD34+ cells; legend part A also gives the IP and nano-LC-MS/MS that identified human vimentin

binding: binds
B1: B1 antibody (Fc fusion)
scFv: MAQVQLLESGGGLVQPGGSLTLACAASGFNFNNYNMNWVRQAPGRGLEWVAFISSAADTVHYADSVEGRFTISRDNAKNSLYLHMNSLRDEDTAVYYCARQLLYWGQGTLVTVSSGGGGGSQAVLTQPSSLSASPGASVSLTCTLRSGINVGAYRIYWYQQKPGSPPQFLLRYKSDSDKQQGSGVPSRFSGSRDASANAGILLISWLRSEDEADYYCAIWHSSAWVFGGGTQLTVLG
notes: also called B1 Ab; B1Ab; not shown: Fc tag of the purified ScFv-Fc fusion protein
